Test results from PubChem BioAssay AID1347076 (National Center for Advancing Translational Sciences (NCATS), 2019).
The whole screen tested about 400,000 compounds, of which about 13,000 (3.2%) were called active. The shares of active, inactive and inconclusive entries below differ from those in the screen. Calls follow the shape of the dose curve; as a rule, active = well fitted cell-killing curve with a large enough effect; inconclusive = small, poorly fitted or top-dose-only effect, or effect the other way; inactive = flat fitted curve, though single readings scatter. Potencies beside an inconclusive call are fits to weak or partial responses and may not hold up.

Experiment: qHTS assay for MDR1-selective chemotherapeutics: Primary screen using the drug-selected MDR subline cells KB-V1; also: nearly all actives have a fitted effect of over 60% in size
Details: KB-V1 MDR cells viability, CellTiter-Glo, 72 h; series mostly up to 46.1 µM
How it was run: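 KB-V1, DMEM (no phenol red) + 10% FBS; cpd pin-transferred, titration series; 72 h, 37 degrees C; CellTiter-Glo, luminescence. Data normalized, curve-fit.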
Potency is read from the fitted curve at half-maximal effect.

SMILES | Potency
Fc1cc(F)cc(NC(=S)NN2CCOCC2)c1 | inactive
CCOc1ccc(-c2cc(CCCC(=O)NCCc3ccccc3)no2)cc1 | inconclusive: 2.31 µM [cytotoxic, full curve, poor fit]
Cn1c(SCc2ccc(Cl)cc2)nc(C(F)(F)F)cc1=O | active: 16.4 µM
COc1ccc(-c2nc(CSCC(=O)NCc3ccc4c(c3)OCO4)c(C)o2)cc1OC | inactive
CCC(=O)NC(=S)Nc1ccc(NC(=O)COc2ccc(Cl)cc2Cl)cc1 | inconclusive: 14.6 µM [cytotoxic, partial curve]
O=C(c1cc(F)c(F)c(F)c1F)N1CCN(Cc2ccc3c(c2)OCO3)CC1 | inactive
Cc1cccc(C(=O)OCC(=O)Nc2ccc(F)cc2)c1 | inactive
Cc1ccc(C)c(OCC(=O)NC(Cc2c[nH]c3ccccc23)C(=O)O)c1 (stereo unspecified) | inconclusive: 29.1 µM [rising, single point]
CCCCS(=O)(=O)c1sc2nc3c(cc2c1N)CCCC3 | inconclusive: 14.6 µM [cytotoxic, partial curve]
O=C(Cc1ccc(Cl)cc1)Nc1ccc2nn(-c3ccc(Cl)cc3)nc2c1 | inactive
COc1ccccc1CCC(=O)Nc1ccc2c(c1)c(=O)n(C)n2Cc1cccc(C(F)(F)F)c1 | inconclusive: 29.1 µM [cytotoxic, single point]
Cc1ccc2nc(-c3ccc(NC(=O)CNC4CC4)cc3)sc2c1 | inactive
COC(=O)[C@@H]1C[C@@H]2CC[C@@H](O)C[C@@H]2N1Cc1ccc(Cl)cc1 | inconclusive: 25.9 µM [rising, single point]
COc1ccc(N2CCN(CC(=O)Nc3ccccc3C(=O)NC(C)c3ccccc3)CC2)cc1 (stereo unspecified) | inactive
CCOc1ccc(-c2cn3ccccc3n2)cc1 | inconclusive: 20.6 µM [cytotoxic, single point]
Cc1ccc(-n2c(SCC(=O)Nc3ccc4c(c3)OCO4)nnc2-c2ccoc2C)cc1 | inconclusive: 29.1 µM [cytotoxic, single point]
Cc1nc2cc(C(=O)N3c4ccccc4CC3C)ccc2s1 (stereo unspecified) | inconclusive: 16.4 µM [cytotoxic, single point]
CCOC(=O)C(=O)NC(C)c1ccccc1 (stereo unspecified) | inconclusive: 32.6 µM [rising, single point]
COc1ccc(C(=O)Nc2ccc(S(=O)(=O)NC(C)(C)C)cc2)cc1[N+](=O)[O-] | inconclusive: 18.4 µM [rising, partial curve, poor fit]
CSc1ncc2c(n1)-c1ccccc1N(Cc1ccc(Cl)cc1)S2(=O)=O | inactive
CC1CCN(S(=O)(=O)c2cn(CC(=O)Nc3cccc(C(F)(F)F)c3)c(=O)c3ccccc23)CC1 | inconclusive: 29.1 µM [cytotoxic, single point]
CCC1(C)Cc2c(sc3nnn(CC(=O)Nc4ccccc4C)c(=O)c23)CO1 (stereo unspecified) | active: 14.6 µM
CC(C)C[C@H](CO)Nc1nc(Nc2cccc(Cl)c2)c2ncn(C(C)C)c2n1 | inactive

SMILES | Potency
COc1ccc(C)cc1NC(=O)CN1CCN(c2ccccc2F)CC1 | inconclusive: 13 µM [cytotoxic, partial curve]
O=S(=O)(NCC1CCCO1)c1ccccc1F (stereo unspecified) | inactive
COC(=O)c1cc2oc3ccccc3c2n1Cc1nc(-c2ccc(OC)cc2)oc1C | inconclusive: 29.1 µM [rising, single point]
Cc1ccccc1-c1nc(CN2CCC(C(=O)NCCC3=CCCCC3)CC2)c(C)o1 | inconclusive: 22.4 µM [cytotoxic, single point]
Cc1ccc(S(=O)(=O)c2cnc(-c3ccccc3)nc2N2CCCCC2)cc1 | inconclusive: 18.4 µM [cytotoxic, single point]
Cc1ccc(S(=O)(=O)C(C#N)c2nc3ccccc3nc2OC(C)C)cc1 (stereo unspecified) | inconclusive: 18.4 µM [cytotoxic, single point]
S=c1[nH]nc(-c2cccc(Cl)c2)n1/N=C/c1ccc(-c2ccccc2Br)o1 | inactive
O=C(Nc1ccc(F)cc1)Nc1ccc(N2CCCC2)c(S(=O)(=O)Nc2ccccc2Cl)c1 | inconclusive: 29.1 µM [cytotoxic, single point]
CCCCNc1nc(Oc2ccc(OCC)nn2)nc(N2CCOCC2)n1 | inconclusive: 20.6 µM [cytotoxic, partial curve, poor fit]
CC(Oc1ccccc1)C(=O)NC1CCN(Cc2ccccc2)CC1 (stereo unspecified) | inconclusive: 20.6 µM [cytotoxic, partial curve, poor fit]
Cc1nc(SCC(=O)NCc2ccccc2)c2oc3ccccc3c2n1 | inactive
CNC(=O)C[C@H]1C(=O)N(c2ccccc2)C[C@@H]1Cc1ccccc1 | inactive
COc1cccc(CSc2nc3ccccc3c3nc(CCn4c(C)nc5ccccc54)nn23)c1 | inconclusive: 0.651 µM [cytotoxic, partial curve, poor fit]
Cc1ccc(C(=O)/C=C/C(=O)c2ccc(C)cc2)cc1 | inactive
CCCn1c2ccccc2c2cnn(CC(=O)N(C)c3ccc(F)cc3)c(=O)c21 | inactive
Cc1onc(-c2ccccc2)c1C(=O)N1CCN(c2ccccc2)CC1 | inconclusive: 13 µM [cytotoxic, partial curve]
O=C(C1CC1)N1CCc2cc(Br)cc(S(=O)(=O)N3CCN(c4cccc(C(F)(F)F)c4)CC3)c21 | inconclusive: 23.1 µM [rising, single point]
CCOc1cc(/C=C2\C(=O)ON=C2c2ccccc2)ccc1OC | inconclusive: 6.51 µM [rising, partial curve]
COCCNC(=O)CN(C(=O)Cn1nnc2ccccc21)c1ccccc1 | inactive
Cc1ccc(-c2cc3ccccc3nc2N2CCOCC2)cc1 | inconclusive: 32.6 µM [cytotoxic, partial curve, poor fit]
CC(C)CN(CC(C)C)S(=O)(=O)N1CCC(C(=O)N2CCc3ccccc3C2)CC1 | inconclusive: 9.2 µM [cytotoxic, partial curve]
COc1ccc(NC(=S)NC(=O)C2CCCCC2)cc1 | inactive
O=C(Nc1nccs1)c1ccc2ccccc2n1 | inconclusive: 5.8 µM [cytotoxic, full curve]

Given with each value named: part of the list above
CNC(=O)C[C@H]1C(=O)N(c2ccccc2)C[C@@H]1Cc1ccccc1
  Potency: inactive
COc1cccc(CSc2nc3ccccc3c3nc(CCn4c(C)nc5ccccc54)nn23)c1
  Potency: inconclusive: 0.651 µM [cytotoxic, partial curve, poor fit]
Cc1ccc(C(=O)/C=C/C(=O)c2ccc(C)cc2)cc1
  Potency: inactive
